## Results of single-concentration screens

Sequences of proteins named here, by UniProt entry; tags and fusion partners are left off. Residues count along the entry.
UniProt I6X8D2, whole entry: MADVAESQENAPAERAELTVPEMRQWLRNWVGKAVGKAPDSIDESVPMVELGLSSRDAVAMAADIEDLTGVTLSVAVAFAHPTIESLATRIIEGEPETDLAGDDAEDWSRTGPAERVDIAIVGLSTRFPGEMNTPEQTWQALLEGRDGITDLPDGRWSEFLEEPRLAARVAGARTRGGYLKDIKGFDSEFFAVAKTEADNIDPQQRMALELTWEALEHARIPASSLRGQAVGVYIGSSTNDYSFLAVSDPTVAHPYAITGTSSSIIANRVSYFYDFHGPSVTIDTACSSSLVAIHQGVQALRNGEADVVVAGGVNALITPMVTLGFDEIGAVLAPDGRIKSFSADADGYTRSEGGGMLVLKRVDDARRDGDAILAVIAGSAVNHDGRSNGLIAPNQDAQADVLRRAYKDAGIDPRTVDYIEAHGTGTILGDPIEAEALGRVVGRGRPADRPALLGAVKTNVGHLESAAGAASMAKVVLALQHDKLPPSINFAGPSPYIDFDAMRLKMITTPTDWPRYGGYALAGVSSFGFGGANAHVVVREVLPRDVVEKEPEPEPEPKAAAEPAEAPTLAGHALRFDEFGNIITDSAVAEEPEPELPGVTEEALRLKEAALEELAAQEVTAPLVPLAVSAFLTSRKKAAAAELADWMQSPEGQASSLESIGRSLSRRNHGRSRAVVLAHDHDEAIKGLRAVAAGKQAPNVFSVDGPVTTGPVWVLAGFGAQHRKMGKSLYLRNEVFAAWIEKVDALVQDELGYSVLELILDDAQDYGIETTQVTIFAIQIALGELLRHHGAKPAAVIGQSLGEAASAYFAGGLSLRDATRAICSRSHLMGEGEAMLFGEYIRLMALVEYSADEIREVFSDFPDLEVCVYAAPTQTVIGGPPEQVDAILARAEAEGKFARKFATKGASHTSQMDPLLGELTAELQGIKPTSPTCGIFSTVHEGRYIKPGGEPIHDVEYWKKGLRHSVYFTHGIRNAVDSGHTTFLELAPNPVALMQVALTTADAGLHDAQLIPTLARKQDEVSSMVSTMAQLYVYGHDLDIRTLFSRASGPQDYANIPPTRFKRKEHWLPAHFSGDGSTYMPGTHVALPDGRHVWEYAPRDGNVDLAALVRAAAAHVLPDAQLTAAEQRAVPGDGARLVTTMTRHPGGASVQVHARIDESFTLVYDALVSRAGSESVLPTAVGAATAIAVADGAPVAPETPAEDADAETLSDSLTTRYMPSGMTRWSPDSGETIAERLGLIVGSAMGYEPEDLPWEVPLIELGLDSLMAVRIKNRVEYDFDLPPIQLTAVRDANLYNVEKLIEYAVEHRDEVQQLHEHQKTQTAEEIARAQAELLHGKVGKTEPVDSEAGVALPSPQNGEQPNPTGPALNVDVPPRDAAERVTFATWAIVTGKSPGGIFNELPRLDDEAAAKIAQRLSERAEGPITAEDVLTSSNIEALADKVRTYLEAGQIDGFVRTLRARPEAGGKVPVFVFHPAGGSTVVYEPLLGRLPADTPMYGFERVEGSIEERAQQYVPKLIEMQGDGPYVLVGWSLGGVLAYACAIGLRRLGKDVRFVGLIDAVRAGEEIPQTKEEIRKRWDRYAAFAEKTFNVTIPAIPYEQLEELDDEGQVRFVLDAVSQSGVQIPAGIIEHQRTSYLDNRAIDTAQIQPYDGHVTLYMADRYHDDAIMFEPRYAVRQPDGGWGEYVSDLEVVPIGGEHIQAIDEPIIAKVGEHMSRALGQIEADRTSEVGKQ
UniProt A4I591, 1-473: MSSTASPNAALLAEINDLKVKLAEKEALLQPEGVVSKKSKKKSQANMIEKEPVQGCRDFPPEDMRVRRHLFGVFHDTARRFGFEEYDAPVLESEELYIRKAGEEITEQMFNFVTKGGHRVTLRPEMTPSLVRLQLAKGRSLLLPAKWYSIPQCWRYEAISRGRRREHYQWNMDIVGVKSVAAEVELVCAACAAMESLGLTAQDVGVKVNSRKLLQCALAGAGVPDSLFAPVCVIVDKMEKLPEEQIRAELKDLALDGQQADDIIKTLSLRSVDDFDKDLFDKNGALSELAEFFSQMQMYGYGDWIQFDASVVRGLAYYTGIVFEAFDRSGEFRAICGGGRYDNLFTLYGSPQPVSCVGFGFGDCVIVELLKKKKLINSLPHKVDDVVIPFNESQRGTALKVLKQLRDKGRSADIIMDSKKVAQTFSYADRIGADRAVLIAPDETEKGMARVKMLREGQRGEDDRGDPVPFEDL
UniProt P9WNZ1, whole entry: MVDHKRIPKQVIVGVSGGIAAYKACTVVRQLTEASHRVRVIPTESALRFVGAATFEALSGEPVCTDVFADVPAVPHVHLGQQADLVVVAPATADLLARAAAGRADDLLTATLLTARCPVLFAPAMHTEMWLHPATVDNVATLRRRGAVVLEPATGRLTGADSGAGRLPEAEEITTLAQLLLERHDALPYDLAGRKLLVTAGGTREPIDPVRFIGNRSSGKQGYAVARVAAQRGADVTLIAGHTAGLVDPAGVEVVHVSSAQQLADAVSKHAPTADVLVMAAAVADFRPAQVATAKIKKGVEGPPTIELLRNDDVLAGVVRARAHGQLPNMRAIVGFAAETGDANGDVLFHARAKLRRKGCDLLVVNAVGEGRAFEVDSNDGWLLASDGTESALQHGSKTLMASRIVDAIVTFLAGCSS

Data taken from ChEMBL document CHEMBL3988442, “University of Dundee, Small-Polar-MMV Screening Library” (2021).

Pks13 thioesterase: 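Polyketide synthase Pks13, Mycobacterium tuberculosis (UniProt I6X8D2). Enzyme assay of the thioesterase domain of polyketide synthase 13; the read-out is not stated. Tested at 30 µM. The record gives no direction; the compounds picked for IC50 retests had high values, so higher reads as stronger inhibition. About 67,000 compounds were tested under these conditions; 0.46% (about 300) showed 50% or more at least once.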
LiHisRS: 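Histidine-tRNA ligase, Leishmania infantum (UniProt A4I591). Enzyme assay of histidyl-tRNA synthetase; the read-out is not stated. Concentration: 30 µM. Direction is inferred from retests: higher values go with stronger inhibition. The assay is labelled LdHisRS but filed under L. infantum. About 69,000 compounds were tested under these conditions; 0.6% (about 410) showed 50% or more at least once.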
CoaBC: 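Coenzyme A biosynthesis protein CoaBC, Mycobacterium tuberculosis (UniProt P9WNZ1). Enzyme assay of CoaBC with a phosphate dye (Biomol Green) read at 650 nm. Concentration: 30 µM. Higher reads as stronger inhibition, judged from the few compounds that gave an IC50. Most strong results did not repeat in a second test. Size under these conditions: about 67,000 compounds, about 40 of them at 50% or above in at least one test.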

Values are the deposited “Percent Effect”, in %.
The controls that fix the scale are not given in the record; negative values are as filed.
The compounds are a random part of those screened.
A dash means the value is not listed here; it may have been measured.

SMILES	Pks13 thioesterase	LiHisRS	CoaBC
CCNc1ncc(C(=O)N[C@H](C(N)=O)c2ccccc2)cn1	12.08%	-2.857%	-
COCC(=O)N1CCCC1(C)c1nc(C)cc(O)n1 (configuration not stated)	-8.802%	7.586%	-0.8653%
CCC[C@@H]1CN(C(=O)c2cc3ccccc3s2)C[C@H]1NS(C)(=O)=O	-17.65%	-18.25%	9.828%
CC(C)(C)C(=O)N1CCC(c2nc(O)cc(-c3ccncc3)n2)CC1	6.368%	3.125%	0.7353%
CN(C(=O)Cn1nc(-c2ccc(F)cc2)ccc1=O)C1CCS(=O)(=O)C1 (configuration not stated)	-10.61%	14.29%	-4.993%
Cc1cc(C)c(CNC(=O)NCC(O)COc2ccccc2)c(=O)[nH]1 (configuration not stated)	-16.6%	4.545%	-3.172%
CCNC(=O)N(C)C1CCCc2nc(C)sc21 (configuration not stated)	-1.502%	-24.66%	6.818%
O=C(O)CNC(=O)Cc1csc(-c2ccccc2F)n1	-	13.04%	-2.795%
O=C(NCc1ccc(Br)cc1)NCC1CCOC1 (configuration not stated)	-8.282%	-1.653%	-1.08%
Cc1cccc(S(=O)(=O)NC2CCN(CC(F)(F)F)C2)c1 (configuration not stated)	-30.62%	8.889%	2.19%
COc1ccccc1NCC(=O)NCc1scnc1C	-20.54%	17.81%	0%
CC(c1cc(F)ccc1F)N1CCN(C(=O)c2ccc(=O)[nH]c2)CC1 (configuration not stated)	1.655%	15.08%	-1.229%
O=C(CN1CCS(=O)(=O)CC1)NC1CCOc2ccccc21 (configuration not stated)	-1.115%	14.52%	-4.474%
Cc1ccc(N2CCCN(C(=O)c3cc(Cl)c[nH]3)CC2)nn1	-4.197%	28.57%	-0.6452%
CCc1cccc(OCCn2cccc(C#N)c2=O)c1	14.11%	4.11%	1.603%
O=C(CCc1ncc(-c2ccc(F)cc2)o1)NCCN1CCOCC1	-37.35%	9.917%	3.121%
CN1CCOC(CN(C(=O)CN2CCCC2=O)c2nccs2)C1 (configuration not stated)	-5.841%	-10.71%	9.868%
CNS(=O)(=O)Cc1cccc(CNCc2ccsc2)c1	-11.88%	6.25%	6.746%
O=C(C1CCC1)N1C[C@@H]2CN(Cc3ccncc3)C(=O)[C@@H]2C1	-8.151%	15.84%	4.827%
COc1cccc([C@@H]2CCN(Cc3cn(C)c4ccccc34)C[C@H]2O)c1	-42.93%	18.18%	4.342%
Cc1cccc(C2CCCN2Cc2nc(N)nc(N(C)C)n2)c1C (configuration not stated)	-6.81%	22.45%	-0.8264%
COCc1nc(CNC2CCSC2)no1 (configuration not stated)	-11.12%	11.11%	3.175%
Cc1ccc(CN2Cc3nccn3CC(Cn3cccn3)C2)s1 (configuration not stated)	7.347%	13.51%	1.733%
COCc1ncc(CN2CCC3(CCNC(=O)CC3)CC2)cn1	-17.74%	6.667%	-1.392%
CCc1n[nH]c(C(=O)NCCn2ccc(C)n2)c1C	-11.51%	1.418%	-0.2331%
CS(=O)(=O)N1C[C@H]2CC[C@@H]1CN(Cc1ccncc1)C2	-5.483%	16.67%	4.551%
CCCn1c(C)c(CC(=O)N(C)CC(=O)OC)c2c1CC(C)(C)CC2=O	-9.417%	15.29%	1.523%
Cc1cc(C(=O)N2CCC(c3nccn3Cc3ccncc3)CC2)no1	-11.39%	21.15%	-3.625%
Cc1ccc([C@@H]2CN(S(=O)(=O)Cc3ccccc3)C[C@H]2N(C)C)cc1	-5.375%	8.197%	-5.579%
COc1ccc2cnn(CC(=O)NCC3CCCO3)c(=O)c2c1OC (configuration not stated)	-15.95%	18.75%	-4.603%
CN(CC(=O)NS(=O)(=O)c1ccsc1)Cc1ccccc1	-26.99%	11.69%	3.165%
NC(=O)C(NC(=O)CSCc1ccc(Cl)s1)c1ccccc1 (configuration not stated)	-2.062%	8.333%	3.828%
CC(C)c1nnc2n1CCN(Cc1nc3c(F)cccc3[nH]1)C2	-34.42%	19.28%	-1.942%
Cc1ccc(NC2CCN(C(=O)c3cccn3C)CC2)nn1	-30.18%	27.4%	2.169%
CN1CCC(NC(=O)Nc2ccc(Cl)c(F)c2)C1=O (configuration not stated)	-17.14%	-9.091%	-1.691%
c1cc(-c2c[nH]c([C@@H]3COCCN3C3CCCCC3)n2)ccn1	-10.71%	25.68%	4.194%

For reference, 3 entries once more:

* COCc1ncc(CN2CCC3(CCNC(=O)CC3)CC2)cn1 | Pks13 thioesterase: -17.74%; LiHisRS: 6.667%; CoaBC: -1.392%
* NC(=O)C(NC(=O)CSCc1ccc(Cl)s1)c1ccccc1 (configuration not stated) | Pks13 thioesterase: -2.062%; LiHisRS: 8.333%; CoaBC: 3.828%
* CC(C)c1nnc2n1CCN(Cc1nc3c(F)cccc3[nH]1)C2 | Pks13 thioesterase: -34.42%; LiHisRS: 19.28%; CoaBC: -1.942%